We go through twelve compounds from PubChem BioAssay AID274 (DTP/NCI, 2004).

This assay deals with BDF1 mice, Lewis lung carcinoma iv, survival T/C. Briefly: NCI In Vivo Anticancer Drug Screen. Data for tumor model Lewis Lung Carcinoma (intravenous) in B6D2F1 (BDF1) mice. The note with it: T/C endpoint: median survival time, higher T/C = longer survival. As for the experimental part: The antitumor activity of compounds was measured in mice bearing transplantable tumors. Survival or tumor size were measured and the results are expressed as the measurement made in the treated group (T) divided by the measurement made in the vehicle treated control group (C). The tumor model used in this assay is Lewis Lung Carcinoma (intravenous) in B6D2F1 (BDF1) mice

The mark [1] stands for this setting: dose: 120.0 mg/kg/injection, schedule: Q04DX003 (ip), vehicle: saline.
Setting [2] is: dose: 50.0 mg/kg/injection, schedule: Q01DX009 (ip), vehicle: saline with Tween-80.

The list is a part of this screen's results and no random one: it is rich in T/C values a quarter to a half above the control, in often repeated tests (any T/C) and in doses without a T/C. Other doses and runs of a compound stand elsewhere. T/C: endpoint of the treated group in % of that of the vehicle group. Some doses have a count of surviving animals in place of a T/C: the source files T/C as zero there, which appears to mark a toxic dose or a test without result, not a measured value. Some doses without a T/C left all or most animals alive at the check, yet need not have been tolerated: the source hardly ever lists a survival T/C far under the control, and the zero likely stands for such cases as well. Counts of survivors are from the toxicity check (mostly the fifth day) where no day follows; animals may have died later. Schedule codes are those of the source, taken here to give the interval after Q, in days (D) or hours (H), and the number of doses after X. Signs of the kind (2×) give the number of equal values in this list. Some entries hold several experiments; the results are listed from low to high. Where survival is the endpoint, the PubChem record calls one and a half times the control and up active, and a quarter to a half above the control has no call in these data; cut-offs in other NCI protocols can differ. Some T/C values are followed by the survivors on the day toxicity was checked, most often the fifth; where none is given, no animal had died by that day.

For the compound `O=c1[nH]cc(F)c(=O)[nH]1`, the T/C is 130 % of control (dose: 5.0 mg/kg/injection, schedule: Q01DX009 (ip), vehicle: saline); 139 % of control (dose: 6.9 mg/kg/injection, schedule: Q01DX022 (ip), vehicle: saline); 140 % of control (dose: 9.8 mg/kg/injection, schedule: Q01DX009 (ip), vehicle: saline); 140 % of control (dose: 9.8 mg/kg/injection, schedule: Q01DX022 (ip), vehicle: saline); 126 % of control [7 of 8 alive] (dose: 14.0 mg/kg/injection, schedule: Q01DX009 (ip), vehicle: saline); 113, 123, 127 % of control (dose: 20.0 mg/kg/injection, schedule: Q01DX009 (ip), vehicle: saline, evaluated on day 60). Moreover, the T/C was 135 [7 of 8 alive] and 186 % of control (dose: 20.0 mg/kg/injection, schedule: Q01DX009 (ip), vehicle: saline, evaluated on day 90); 100 [7 of 8 alive] and 102 % of control (2×) (dose: 20.0 mg/kg/injection, schedule: Q04DX003 (ip), vehicle: saline, evaluated on day 60); 107 [7 of 8 alive] and 117 % of control (dose: 20.0 mg/kg/injection, schedule: Q04DX003 (ip), vehicle: saline, evaluated on day 90); 135 % of control (dose: 20.0 mg/kg/injection, schedule: Q04DX006 (ip), vehicle: saline); 100, 105, 105 [7 of 8 alive], 115, 115 % of control [7 of 8 alive] (2×) (dose: 30.0 mg/kg/injection, schedule: Q04DX003 (ip), vehicle: saline, evaluated on day 60); 109 [7 of 8 alive] and 139 % of control (dose: 30.0 mg/kg/injection, schedule: Q04DX003 (ip), vehicle: saline, evaluated on day 90). The T/C was 140 % of control (dose: 30.0 mg/kg/injection, schedule: Q04DX006 (ip), vehicle: saline); 114 and 114 % of control [7 of 8 alive] (dose: 44.0 mg/kg/injection, schedule: Q04DX003 (ip), vehicle: saline, evaluated on day 60); 114 [7 of 8 alive] and 206 % of control (dose: 44.0 mg/kg/injection, schedule: Q04DX003 (ip), vehicle: saline, evaluated on day 90); 145 % of control (dose: 44.0 mg/kg/injection, schedule: Q04DX006 (ip), vehicle: saline); 100 and 122 % of control (2×) (dose: 67.0 mg/kg/injection, schedule: Q04DX003 (ip), vehicle: saline, evaluated on day 60); 136 % of control [6 of 8 alive] (dose: 67.0 mg/kg/injection, schedule: Q04DX003 (ip), vehicle: saline, evaluated on day 90). Besides, the T/C by setting is: (dose: 100.0 mg/kg/injection, schedule: Q04DX003 (ip), vehicle: saline, evaluated on day 60) 122 % of control (2×); (dose: 100.0 mg/kg/injection, schedule: Q04DX003 (ip), vehicle: saline, evaluated on day 90) 125 % of control [7 of 8 alive]; under setting [1], 131 and 131 % of control [7 of 8 alive]. In addition, the survivor count (dose: 20.0 mg/kg/injection, schedule: Q01DX022 (ip), vehicle: saline) is 8 of 8; the survivor count (dose: 28.6 mg/kg/injection, schedule: Q01DX009 (ip), vehicle: saline) is reported as 8 of 8; the survivor count (dose: 28.6 mg/kg/injection, schedule: Q01DX022 (ip), vehicle: saline) is recorded as 8 of 8; the survivor count (dose: 40.0 mg/kg/injection, schedule: Q01DX009 (ip), vehicle: saline) was 10 of 10; the survivor count (dose: 40.9 mg/kg/injection, schedule: Q01DX009 (ip), vehicle: saline) is listed as 8 of 8; the survivor count (dose: 44.0 mg/kg/injection, schedule: Q04DX003 (ip), vehicle: saline) is given as 8 of 8. Also, the survivor count was 5 of 8 and 6 of 8 (dose: 60.0 mg/kg/injection, schedule: Q04DX003 (ip), vehicle: saline); 8 of 8 (dose: 67.0 mg/kg/injection, schedule: Q04DX003 (ip), vehicle: saline); 8 of 8 (dose: 67.0 mg/kg/injection, schedule: Q04DX006 (ip), vehicle: saline); 10 of 10 (dose: 80.0 mg/kg/injection, schedule: Q01DX009 (ip), vehicle: saline); 8 of 8 (2×) (dose: 100.0 mg/kg/injection, schedule: Q04DX003 (ip), vehicle: saline); 8 of 8 (dose: 100.0 mg/kg/injection, schedule: Q04DX006 (ip), vehicle: saline). The survivor count under setting [1] is 7 of 8.
`COC1/C=C/C=C(/C)Cc2cc(O)c(Cl)c(c2)N(C)C(=O)CC(OC(=O)C(C)C)C2(C)OC2C(C)C2CC1(O)NC(=O)O2` (configuration not stated): the survivor count is, setting by setting: (dose: 2.0 mg/kg/injection, schedule: Q01DX009 (ip), vehicle: saline + alcohol) 5 of 10; (dose: 4.0 mg/kg/injection, schedule: Q01DX009 (ip), vehicle: saline + alcohol) 1 of 10.
As for `COC(OC(CO)C(O)S(=O)(=O)O)C(O)S(=O)(=O)O` (configuration not stated), the survivor count (dose: 200.0 mg/kg/injection, schedule: Q01DX009 (ip), vehicle: saline) is on record as 10 of 10.
With `COc1ccc(C(Cn2ccnc2)Sc2ccc(Cl)c(Cl)c2)cc1` (configuration not stated), the survivor count runs as follows: (dose: 100.0 mg/kg/injection, schedule: Q01DX009 (ip), vehicle: saline with Tween-80) 7 of 10; (dose: 200.0 mg/kg/injection, schedule: Q01DX009 (ip), vehicle: saline with Tween-80) 0 of 10.
For the compound `Nc1ccc(Cl)cc1N`, for the setting “dose: 400.0 mg/kg/injection, schedule: Q01DX009 (ip), vehicle: saline with Tween-80”, the survivor count was 1 of 10.
Regarding `Cc1c(N)nc([C@H](CC(N)=O)NC[C@H](N)C(N)=O)nc1C(=O)N[C@H](C(=O)N[C@H](C)[C@@H](O)CC(=O)N[C@H](C(=O)NC(O[C@@H]1O[C@@H](C)[C@@H](N)[C@@H](O)[C@H]1O)C(O)c1nc(-c2nc(C(=O)NCCCCN)cs2)cs1)[C@@H](C)O)[C@@H](O[C@@H]1O[C@@H](CO)[C@@H](O)[C@H](O)[C@@H]1O[C@H]1O[C@H](CO)[C@@H](O)[C@H](OC(N)=O)[C@@H]1O)c1c[nH]cn1` (some centres not stated), the T/C runs as follows: (dose: 4.0 mg/kg/injection, schedule: Q01DX009 (ip), vehicle: saline) 144 % of control; (dose: 8.0 mg/kg/injection, schedule: Q01DX009 (ip), vehicle: saline) 135 % of control; (dose: 16.0 mg/kg/injection, schedule: Q01DX009 (ip), vehicle: saline) 148 % of control. Further, the survivor count (dose: 32.0 mg/kg/injection, schedule: Q01DX009 (ip), vehicle: saline) was 10 of 10.
As for `O=C(CCN1CC1)OCCOC(=O)CCN1CC1`, the T/C (dose: 12.0 mg/kg/injection, schedule: Q01DX009 (ip), vehicle: saline) was 128 % of control.
With `COC(=O)c1cc2cc3c(c(O)c2c(=O)o1)OC1(Cc2c(O)c4c(c(O)c2O1)C(=O)C(OC)CC4=O)CC3O` (configuration not stated), the survivor count under setting [2] is 9 of 10.
Regarding `O=c1c(O)c(-c2cc(O)c(O)c(O)c2)oc2cc(O)cc(O)c12`, the survivor count (dose: 400.0 mg/kg/injection, schedule: Q01DX009 (ip), vehicle: other) is 9 of 10.
As to `CNC=O`, the survivor count is, setting by setting: (dose: 800.0 mg/kg/injection, schedule: Q01DX009 (ip), vehicle: saline sonified) 10 of 10; (dose: 1600.0 mg/kg/injection, schedule: Q01DX009 (ip), vehicle: saline sonified) 9 of 10; (dose: 3200.0 mg/kg/injection, schedule: Q01DX009 (ip), vehicle: saline sonified) 0 of 10.
Turning to `CC(=O)c1c(O)c(C)c(O)c2c1OC1=CC(=O)C(C(C)=O)C(=O)C12C` (configuration not stated), the survivor count runs as follows: (dose: 12.5 mg/kg/injection, schedule: Q01DX009 (ip), vehicle: gum acacia) 10 of 10; (dose: 25.0 mg/kg/injection, schedule: Q01DX009 (ip), vehicle: gum acacia) 10 of 10; (dose: 100.0 mg/kg/injection, schedule: Q01DX009 (ip), vehicle: gum acacia) 10 of 10; (dose: 200.0 mg/kg/injection, schedule: Q01DX009 (ip), vehicle: gum acacia) 10 of 10.
Regarding `OCCN1CCN(CC/C=C2/c3ccccc3Sc3ccc(C(F)(F)F)cc32)CC1`, the survivor count is, setting by setting: (dose: 6.25 mg/kg/injection, schedule: Q01DX009 (ip), vehicle: saline with Tween-80) 10 of 10; (dose: 25.0 mg/kg/injection, schedule: Q01DX009 (ip), vehicle: saline with Tween-80) 5 of 10; under setting [2], 0 of 10.
